In PMC4505944, “The THERMOSENSITIVE MALE STERILE 1 Interacts with the BiPs via DnaJ Domain and Stimulates Their ATPase Enzyme Activities in Arabidopsis” (PLoS ONE, 2015) one finds binding data, which are given here for two substances.

Chains of the proteins cited; added tags and fusions are not shown. Lines headed by an entry give the natural chain unless they say otherwise; changes in a name come on top. Residues count along the entry.
UniProt Q9SR96: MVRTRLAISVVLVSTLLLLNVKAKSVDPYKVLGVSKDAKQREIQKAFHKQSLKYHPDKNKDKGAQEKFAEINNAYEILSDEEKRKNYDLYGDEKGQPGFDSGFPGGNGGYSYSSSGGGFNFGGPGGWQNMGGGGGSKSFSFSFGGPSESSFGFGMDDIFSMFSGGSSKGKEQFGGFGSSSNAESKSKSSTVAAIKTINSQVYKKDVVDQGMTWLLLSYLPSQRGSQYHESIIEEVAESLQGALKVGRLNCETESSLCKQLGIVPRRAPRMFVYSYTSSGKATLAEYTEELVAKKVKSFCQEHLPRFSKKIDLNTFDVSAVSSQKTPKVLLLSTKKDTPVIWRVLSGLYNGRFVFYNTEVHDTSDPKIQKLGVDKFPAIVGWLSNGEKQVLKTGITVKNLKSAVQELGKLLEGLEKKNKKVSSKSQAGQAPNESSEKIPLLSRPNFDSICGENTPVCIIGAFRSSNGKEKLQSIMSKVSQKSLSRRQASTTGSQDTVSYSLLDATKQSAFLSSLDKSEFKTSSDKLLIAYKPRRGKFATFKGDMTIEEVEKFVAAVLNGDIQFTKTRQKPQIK
UniProt Q9LKR3, residues 28-669: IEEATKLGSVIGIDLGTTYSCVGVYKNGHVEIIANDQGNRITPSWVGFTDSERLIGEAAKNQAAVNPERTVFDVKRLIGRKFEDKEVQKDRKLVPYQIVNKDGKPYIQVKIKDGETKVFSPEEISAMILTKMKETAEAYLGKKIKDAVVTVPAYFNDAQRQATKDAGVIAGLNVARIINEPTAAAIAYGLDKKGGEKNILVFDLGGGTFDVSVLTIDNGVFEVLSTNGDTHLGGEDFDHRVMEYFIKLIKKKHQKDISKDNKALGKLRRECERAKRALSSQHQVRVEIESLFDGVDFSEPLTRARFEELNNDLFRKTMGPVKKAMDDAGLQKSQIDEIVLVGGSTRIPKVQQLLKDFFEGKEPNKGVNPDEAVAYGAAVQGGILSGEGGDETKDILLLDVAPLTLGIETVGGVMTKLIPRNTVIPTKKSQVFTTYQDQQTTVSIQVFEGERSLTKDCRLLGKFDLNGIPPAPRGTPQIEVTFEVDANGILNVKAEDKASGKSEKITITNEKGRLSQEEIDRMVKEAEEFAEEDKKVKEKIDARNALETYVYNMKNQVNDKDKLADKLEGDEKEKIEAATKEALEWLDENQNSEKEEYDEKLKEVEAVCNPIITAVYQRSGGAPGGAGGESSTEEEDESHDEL
UniProt Q8H1B3, residues 36-675: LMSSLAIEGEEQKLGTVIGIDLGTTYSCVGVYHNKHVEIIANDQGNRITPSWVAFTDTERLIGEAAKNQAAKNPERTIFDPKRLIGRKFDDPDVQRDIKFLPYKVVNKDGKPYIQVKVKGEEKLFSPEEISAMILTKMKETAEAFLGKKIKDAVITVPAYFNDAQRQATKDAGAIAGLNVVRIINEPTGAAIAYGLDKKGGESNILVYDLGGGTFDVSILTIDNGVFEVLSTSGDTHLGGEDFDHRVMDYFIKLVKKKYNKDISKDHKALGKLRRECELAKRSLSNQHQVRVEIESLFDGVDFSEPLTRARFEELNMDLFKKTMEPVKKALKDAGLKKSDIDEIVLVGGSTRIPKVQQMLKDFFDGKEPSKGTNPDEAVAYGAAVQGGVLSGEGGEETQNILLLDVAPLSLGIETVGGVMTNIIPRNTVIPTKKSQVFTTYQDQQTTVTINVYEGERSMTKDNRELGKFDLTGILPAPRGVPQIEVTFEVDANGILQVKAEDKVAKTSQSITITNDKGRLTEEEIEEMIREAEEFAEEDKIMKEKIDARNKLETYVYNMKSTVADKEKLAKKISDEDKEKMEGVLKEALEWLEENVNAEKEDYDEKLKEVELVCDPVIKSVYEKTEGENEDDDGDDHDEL

These are yes or no findings as the source states them, for the method shown.

Assay [1] concerns the target mutated TMS1 DnaJ domain with a GST tag (Arabidopsis thaliana) (UniProt Q9SR96). In words: pull-down; as the GST pull-down with ATP, but in the absence of ATP; GST fusion or GST on Glutathione Sepharose 4B beads, purified BiP1 or BiP3 added; anti-His blot; both purified.
Assay [2] shares this target. The assay is described as follows: pull-down; 30 μg GST fusion or GST on Glutathione Sepharose 4B beads; 30 μg purified BiP1 or BiP3 with 1 mM ATP in 1 mL binding buffer (20 mM Hepes pH 6.8, 100 mM KCl, 5 mM MgCl2, 0.1% NP-40, 2% glycerol, 1 mM DTT, 1 mM EDTA), 4°C, 2 h; anti-His blot; both purified.

As for “BiP1 without signal peptide, His-tagged (from UniProt Q9LKR3 28-669)”, the binding entry in assay [1] and in assay [2] was “no binding (tested: 30 μg in 1 mL)” in each case.
Consider “BiP3 without signal peptide, His-tagged (from UniProt Q8H1B3 36-675)”, for which the binding result in assay [1] and in assay [2] was “no binding (tested: 30 μg in 1 mL)” throughout.
